Laboratory results from PMC12662691, “DDX3X Promotes Rotavirus Infection and Serves as an Antiviral Target” (Transboundary and Emerging Diseases, 2025).
No constants are given. Whether binding was seen depends on the method and setting. Binding seen in cells or lysates may run through a third protein. A yes stands for co-enrichment or nearness to the bait. Other partners may have been found.

B1: DDX46 (protein, UniProt Q7L014 1-1031)
chain: MGRESRHYRKRSASRGRSGSRSRSRSPSDKRSKRGDDRRSRSRDRDRRRERSRSRDKRRSRSRDRKRLRRSRSRERDRSRERRRSRSRDRRRSRSRSRGRRSRSSSPGNKSKKTENRSRSKEKTDGGESSKEKKKDKDDKEDEKEKDAGNFDQNKLEEEMRKRKERVEKWREEQRKKAMENIGELKKEIEEMKQGKKWSLEDDDDDEDDPAEAEKEGNEMEGEELDPLDAYMEEVKEEVKKFNMRSVKGGGGNEKKSGPTVTKVVTVVTTKKAVVDSDKKKGELMENDQDAMEYSSEEEEVDLQTALTGYQTKQRKLLEPVDHGKIEYEPFRKNFYVEVPELAKMSQEEVNVFRLEMEGITVKGKGCPKPIKSWVQCGISMKILNSLKKHGYEKPTPIQTQAIPAIMSGRDLIGIAKTGSGKTIAFLLPMFRHIMDQRSLEEGEGPIAVIMTPTRELALQITKECKKFSKTLGLRVVCVYGGTGISEQIAELKRGAEIIVCTPGRMIDMLAANSGRVTNLRRVTYVVLDEADRMFDMGFEPQVMRIVDNVRPDRQTVMFSATFPRAMEALARRILSKPIEVQVGGRSVVCSDVEQQVIVIEEEKKFLKLLELLGHYQESGSVIIFVDKQEHADGLLKDLMRASYPCMSLHGGIDQYDRDSIINDFKNGTCKLLVATSVAARGLDVKHLILVVNYSCPNHYEDYVHRAGRTGRAGNKGYAYTFITEDQARYAGDIIKALELSGTAVPPDLEKLWSDFKDQQKAEGKIIKKSSGFSGKGFKFDETEQALANERKKLQKAALGLQDSDDEDAAVDIDEQIESMFNSKKRVKDMAAPGTSSVPAPTAGNAEKLEIAKRLALRINAQKNLGIESQDVMQQATNAILRGGTILAPTVSAKTIAEQLAEKINAKLNYVPLEKQEEERQDGGQNESFKRYEEELEINDFPQTARWKVTSKEALQRISEYSEAAITIRGTYFPPGKEPKEGERKIYLAIESANELAVQKAKAEITRLIKEELIRLQNSYQPTNKGRYKVL
B2: DHX57 (protein, UniProt Q6P158 1-1386)
chain: MSSSVRRKGKPGKGGGKGSSRGGRGGRSHASKSHGSGGGGGGGGGGGGGNRKASSRIWDDGDDFCIFSESRRPSRPSNSNISKGESRPKWKPKAKVPLQTLHMTSENQEKVKALLRDLQEQDADAGSERGLSGEEEDDEPDCCNDERYWPAGQEPSLVPDLDPLEYAGLASVEPYVPEFTVSPFAVQKLSRYGFNTERCQAVLRMCDGDVGASLEHLLTQCFSETFGERMKISEAVNQISLDECMEQRQEEAFALKSICGEKFIERIQNRVWTIGLELEYLTSRFRKSKPKESTKNVQENSLEICKFYLKGNCKFGSKCRFKHEVPPNQIVGRIERSVDDSHLNAIEDASFLYELEIRFSKDHKYPYQAPLVAFYSTNENLPLACRLHISEFLYDKALTFAETSEPVVYSLITLLEEESEIVKLLTNTHHKYSDPPVNFLPVPSRTRINNPACHKTVIPNNSFVSNQIPEVEKASESEESDEDDGPAPVIVENESYVNLKKKISKRYDWQAKSVHAENGKICKQFRMKQASRQFQSILQERQSLPAWEERETILNLLRKHQVVVISGMTGCGKTTQIPQFILDDSLNGPPEKVANIICTQPRRISAISVAERVAKERAERVGLTVGYQIRLESVKSSATRLLYCTTGVLLRRLEGDTALQGVSHIIVDEVHERTEESDFLLLVLKDIVSQRPGLQVILMSATLNAELFSDYFNSCPVITIPGRTFPVDQFFLEDAIAVTRYVLQDGSPYMRSMKQISKEKLKARRNRTAFEEVEEDLRLSLHLQDQDSVKDAVPDQQLDFKQLLARYKGVSKSVIKTMSIMDFEKVNLELIEALLEWIVDGKHSYPPGAILVFLPGLAEIKMLYEQLQSNSLFNNRRSNRCVIHPLHSSLSSEEQQAVFVKPPAGVTKIIISTNIAETSITIDDVVYVIDSGKMKEKRYDASKGMESLEDTFVSQANALQRKGRAGRVASGVCFHLFTSHHYNHQLLKQQLPEIQRVPLEQLCLRIKILEMFSAHNLQSVFSRLIEPPHTDSLRASKIRLRDLGALTPDERLTPLGYHLASLPVDVRIGKLMLFGSIFRCLDPALTIAASLAFKSPFVSPWDKKEEANQKKLEFAFANSDYLALLQAYKGWQLSTKEGVRASYNYCRQNFLSGRVLQEMASLKRQFTELLSDIGFAREGLRAREIEKRAQGGDGVLDATGEEANSNAENPKLISAMLCAALYPNVVQVKSPEGKFQKTSTGAVRMQPKSAELKFVTKNDGYVHIHPSSVNYQVRHFDSPYLLYHEKIKTSRVFIRDCSMVSVYPLVLFGGGQVNVQLQRGEFVVSLDDGWIRFVAASHQVAELVKELRCELDQLLQDKIKNPSIDLCTCPRGSRIISTIVKLVTTQ

Molecular target: VP4 used as TurboID proximity labelling bait (MYAS33 RV strain) (rotavirus A, strain MYAS33 (isolated from bats))
Assay: proximity labelling; TurboID (promiscuous biotin ligase) with VP4 of the MYAS33 RV strain as bait; biotin-labelled host proteins identified; dataset iProX IPX0007242000, experiment described in ref. 19

Binder	binding
B1	binds
B2	binds
